According to paper PMC7819943, “Rice protein-binding microarrays: a tool to detect cis-acting elements near promoter regions in rice”:
The list shows a part of the results.

The sequences below were run against T1, OsSMF1 (Oryza sativa, UniProt Q6ZLB0 1-436) (assay: protein-binding microarray (RPBM); PBS, 2% BSA, 51.3 ng/ul salmon testes DNA, 50 uM zinc acetate, 200 nM TF, 25 C, 1 h; high values mean tight binding). Conditions: protein: recombinant; tags: N-terminal polyhistidine and DsRed monomer fusion (pET32a); chain copies: 2; label: CyDye5-dUTP incorporated in the synthesized complementary strand; 3' TTTTT single-stranded linker to array surface; dsDNA, one strand shown.
T1 sequence: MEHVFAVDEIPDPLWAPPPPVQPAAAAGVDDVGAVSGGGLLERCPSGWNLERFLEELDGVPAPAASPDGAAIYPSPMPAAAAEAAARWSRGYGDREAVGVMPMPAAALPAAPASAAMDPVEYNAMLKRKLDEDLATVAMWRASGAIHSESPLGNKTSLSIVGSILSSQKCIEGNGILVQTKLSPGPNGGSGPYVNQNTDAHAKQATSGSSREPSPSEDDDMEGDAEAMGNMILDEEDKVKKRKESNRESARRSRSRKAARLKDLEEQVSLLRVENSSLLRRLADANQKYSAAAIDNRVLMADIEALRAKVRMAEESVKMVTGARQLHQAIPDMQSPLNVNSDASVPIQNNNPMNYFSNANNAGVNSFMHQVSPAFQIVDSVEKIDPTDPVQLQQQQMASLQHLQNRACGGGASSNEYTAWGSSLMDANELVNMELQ
Procedure, shortened: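 For the binding signal, per-feature fluorescence intensity was read in arbitrary units on an Axon 4000B scanner. Before scanning, a 2% BSA-blocked custom Agilent array made double-stranded with Cy5-dUTP was washed after 1 h at 25 °C with 200 nM protein and 50 µM zinc acetate. The proteins were Ni–NTA-purified transcription factors with N-terminal polyhistidine and DsRed fusions, expressed in E. coli BL21-CodonPlus.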

Sequence	binding signal
GGTTCCAATTCGTCGCCTGATACTCCGATTCGAGTTCTTGCGGAGTCACCTAGTGCAG	3240 fluorescence intensity (a.u.)
CCTCATGACATACCTCCAACACTTACAGATATAGAATATTCGGAGTCACCTAGTGCAG	3180 fluorescence intensity (a.u.)
CCAATCCGTTTATTTACACGAGAACGTACGTACGCGCGCTCGGAGTCACCTAGTGCAG	3240 fluorescence intensity (a.u.)
TTAAATGAATCATTTTGTTCCTATTTCTAAAATAAACTATCGGAGTCACCTAGTGCAG	3380 fluorescence intensity (a.u.)
AGTTAAGGGACCTCCGATGAACTTATTCCTTAGAAACTTGCGGAGTCACCTAGTGCAG	34200 fluorescence intensity (a.u.)
ATATCCATATCAAATTAAGCCAGGTTTGTAATTAATAACTCGGAGTCACCTAGTGCAG	9630 fluorescence intensity (a.u.)
CCGGCCGGGCGGTCGCTGTTGCTGACTTGACCAGAGACGACGGAGTCACCTAGTGCAG	3580 fluorescence intensity (a.u.)
ATCTTCTTCCCTTCTCTCCAGTCGACCCTCTCTCCATCTTCGGAGTCACCTAGTGCAG	20300 fluorescence intensity (a.u.)
TCTGTAGAGCAGTATGAGCTAGCCAAGAGAGTTGCACATACGGAGTCACCTAGTGCAG	8680 fluorescence intensity (a.u.)
CGACTCAAAGATAAATGATATGTCATCGGCACCTAGCCGACGGAGTCACCTAGTGCAG	4200 fluorescence intensity (a.u.)
AAGTTCAAGCAAGGCACCAAACCGTTGAAAGGAACTGATGCGGAGTCACCTAGTGCAG	6230 fluorescence intensity (a.u.)
GGCAGCTTCATATTCCTCGTCACGGCGAACCCGTCGCCGCCGGAGTCACCTAGTGCAG	4520 fluorescence intensity (a.u.)
GTGGTCGTGACGTTGTCGACATGACGTACAATCAAGGACGCGGAGTCACCTAGTGCAG	6700 fluorescence intensity (a.u.)
TTGCCCCTGCTGTTTCGAATGCTTGTCCAAGTCATGTGGACGGAGTCACCTAGTGCAG	3860 fluorescence intensity (a.u.)
CTCGTCCCACGCGGCGACCAGCACCGACGTGGCGTGCGTGCGGAGTCACCTAGTGCAG	17200 fluorescence intensity (a.u.)
AATCGTGTCCATGGTCTCCACCTCACGGGAGATTCTCCGCCGGAGTCACCTAGTGCAG	3830 fluorescence intensity (a.u.)
CGTACCTAGCTTATAATATTGGTGATTCATATGCTGGCCCCGGAGTCACCTAGTGCAG	3560 fluorescence intensity (a.u.)
AGATACTGCTGACCAATATAGATACCCTGATGTCCCATCCCGGAGTCACCTAGTGCAG	4410 fluorescence intensity (a.u.)
GTCTGACCGACATGCAGTGGCCCACATGTCTGTCATACATCGGAGTCACCTAGTGCAG	4270 fluorescence intensity (a.u.)
ACCATGTTGTAATGGCATGACGCCAATCGATATATACTTGCGGAGTCACCTAGTGCAG	3910 fluorescence intensity (a.u.)
ATTGCTTCAAACCAGAACGGTTTTGATTCTATGTGGCATACGGAGTCACCTAGTGCAG	14800 fluorescence intensity (a.u.)

For convenience, some entries already given.
Sequence	binding signal
GGTTCCAATTCGTCGCCTGATACTCCGATTCGAGTTCTTGCGGAGTCACCTAGTGCAG	3240 fluorescence intensity (a.u.)
CCTCATGACATACCTCCAACACTTACAGATATAGAATATTCGGAGTCACCTAGTGCAG	3180 fluorescence intensity (a.u.)
CCAATCCGTTTATTTACACGAGAACGTACGTACGCGCGCTCGGAGTCACCTAGTGCAG	3240 fluorescence intensity (a.u.)
TTAAATGAATCATTTTGTTCCTATTTCTAAAATAAACTATCGGAGTCACCTAGTGCAG	3380 fluorescence intensity (a.u.)
AGTTAAGGGACCTCCGATGAACTTATTCCTTAGAAACTTGCGGAGTCACCTAGTGCAG	34200 fluorescence intensity (a.u.)
ATATCCATATCAAATTAAGCCAGGTTTGTAATTAATAACTCGGAGTCACCTAGTGCAG	9630 fluorescence intensity (a.u.)

Following part.

Sequence	binding signal
CTGGCCATCCACGTGTCCCAGCGTGGCTGCTCTTCCACCACGGAGTCACCTAGTGCAG	14800 fluorescence intensity (a.u.)
ATACATAGTTCCACCATGTCATCTAAATTCTAAACTCCTTCGGAGTCACCTAGTGCAG	3170 fluorescence intensity (a.u.)
TAGAAAGTAGTATTTAGCAATAGCTTAGTGCATTGGCTTTCGGAGTCACCTAGTGCAG	20900 fluorescence intensity (a.u.)
TTTCCAATCACGTATTCCGGACAAAGGCCTAAACCTGCTCCGGAGTCACCTAGTGCAG	35800 fluorescence intensity (a.u.)
TATGATGATGACATATGGTTGTATGGTCTTTGCTGTGACGCGGAGTCACCTAGTGCAG	5470 fluorescence intensity (a.u.)
AAAAGATGTGCACTAGTTGACGAAAGACAAAAGAAGGAGTCGGAGTCACCTAGTGCAG	3200 fluorescence intensity (a.u.)
GCTAGCTATTGTTGATTTGTCGTGTTGTAATATATACACTCGGAGTCACCTAGTGCAG	4680 fluorescence intensity (a.u.)
TTTACGTAAGCGGTGACGAAGCAAGTGCCCATGTTCCGGGCGGAGTCACCTAGTGCAG	6110 fluorescence intensity (a.u.)
TAGGAGGAGAGAGAACGGGAGGAGATGGGGTAGGAAGGGGCGGAGTCACCTAGTGCAG	3610 fluorescence intensity (a.u.)
CCGCACCACCACGCGCCGACACGTGGCTGCCGACCTGATGCGGAGTCACCTAGTGCAG	12500 fluorescence intensity (a.u.)
GGTGGTGGCAAGCCCTGCTGATCTCATCAAGGTAAGGATGCGGAGTCACCTAGTGCAG	4360 fluorescence intensity (a.u.)
TTGTTAATTACCGCGATTGATGTCGAGCTTGCATTTTGATCGGAGTCACCTAGTGCAG	3540 fluorescence intensity (a.u.)
ACGCGAGGGACTGTGAGAGCTCACTGGGGTGTCGCCGTGTCGGAGTCACCTAGTGCAG	3580 fluorescence intensity (a.u.)
AATCAACAAATAACTAATATTCTTACATCAGCTACTATAACGGAGTCACCTAGTGCAG	28600 fluorescence intensity (a.u.)
TTCTAACCATCCCCTCCTGCTAATAGGTGAATTCCCCGTGCGGAGTCACCTAGTGCAG	3830 fluorescence intensity (a.u.)
TGAGTATAGAATCCATATAGAAATTTAAAACTAACTAAAACGGAGTCACCTAGTGCAG	3860 fluorescence intensity (a.u.)
ACGCGGGCACGGGGCCCACTGCCGACGTGCCAATCCTGGACGGAGTCACCTAGTGCAG	6960 fluorescence intensity (a.u.)
CATAGTGGATCTGGAGCTTATCTGCAATGATAAGACAATGCGGAGTCACCTAGTGCAG	3140 fluorescence intensity (a.u.)
CTTCGCTGTTTTGACACTCCGTGTGGATGACAAATGGACCCGGAGTCACCTAGTGCAG	3750 fluorescence intensity (a.u.)
GCCTGTAGCCTGGTGGTTACAAGAGCCTCAGTAGCACCTGCGGAGTCACCTAGTGCAG	3250 fluorescence intensity (a.u.)
ACTACCATGTGTACGTCACGTAGGACCAAAATCGCTCCGGCGGAGTCACCTAGTGCAG	7660 fluorescence intensity (a.u.)

Sequence	binding signal
GGGACGGAGCAGTACGTTGTAGCATCATGCCATGTCGGCACGGAGTCACCTAGTGCAG	6520 fluorescence intensity (a.u.)
GGGGACGGGGAACGCGGCGGTGTGGATGGGGACGGTAGCGCGGAGTCACCTAGTGCAG	4050 fluorescence intensity (a.u.)
GGATATTGTCGAGAAGGTCCCCGACACTTGGACCGTGACGCGGAGTCACCTAGTGCAG	3210 fluorescence intensity (a.u.)
CTAGATACCATACTAACATCATGATGATGTCGACAAACATCGGAGTCACCTAGTGCAG	3500 fluorescence intensity (a.u.)
TGCCATCTTGACCCACATGTCATTGGGTTCTATATGCCATCGGAGTCACCTAGTGCAG	3290 fluorescence intensity (a.u.)
CTTCACTGCATCCAGCTCCACGCCCACGAACCTGTTGGTGCGGAGTCACCTAGTGCAG	3820 fluorescence intensity (a.u.)
CACCTTCTGTTGCATAAAGACAATGATCACTGACATCAGGCGGAGTCACCTAGTGCAG	3480 fluorescence intensity (a.u.)
CTAGCAGACACTCTGTTCTGCTAAATATACCACACACACACGGAGTCACCTAGTGCAG	3550 fluorescence intensity (a.u.)
AGCTAGCTAGCTAACTAGTAAGGAGGTACACGTAGGTAGCCGGAGTCACCTAGTGCAG	6960 fluorescence intensity (a.u.)
TTCTCAGCCAGCGTCATCGTCAAACGGACGTTGGTAGGCCCGGAGTCACCTAGTGCAG	3610 fluorescence intensity (a.u.)
CGCGCGCGCCCGGCGTCCACGTGTATATATAACCCGCCACCGGAGTCACCTAGTGCAG	9940 fluorescence intensity (a.u.)
TGCAACCACAGGCGAAGCCACGTCGGGCGTGTCAAATTGTCGGAGTCACCTAGTGCAG	8970 fluorescence intensity (a.u.)
AGAAGTTGAATTTTGATATATTTTATATTAATCTGTGTTGCGGAGTCACCTAGTGCAG	17800 fluorescence intensity (a.u.)
TTGAAACTGTGCATGCGCATCACCTTCATGCCCAAAATTTCGGAGTCACCTAGTGCAG	3160 fluorescence intensity (a.u.)
TTCTCGCGGCGGTGGCGGAACGGTCACTTCTCTTCTTCACCGGAGTCACCTAGTGCAG	4330 fluorescence intensity (a.u.)
TTCTGGTTCTTGGACTCCCTGTTCTTGGTTCCTGCATTTCCGGAGTCACCTAGTGCAG	4060 fluorescence intensity (a.u.)
CACGTGGGCCCCACCACCCCTGGCCCCACGTGTCAGCGAGCGGAGTCACCTAGTGCAG	10700 fluorescence intensity (a.u.)
TTAAGGTAATGAGCCCTATCTGATGTCAGTGGGGATTGTTCGGAGTCACCTAGTGCAG	7560 fluorescence intensity (a.u.)
TCCAGGTGGGAAGAGTTGTTGGTGTGTCAGGTTGTCCAATCGGAGTCACCTAGTGCAG	4160 fluorescence intensity (a.u.)
GCAGTCTTGTAGTCTCGTGCACCAATCGTCGCGCCGCGGCCGGAGTCACCTAGTGCAG	22300 fluorescence intensity (a.u.)
CTTCTCTTCGACCACGCGAACACCTATCCATTCTGTGAGGCGGAGTCACCTAGTGCAG	3160 fluorescence intensity (a.u.)

Sequence	binding signal
CGGTCCTTTTCTGCTTTGGTTGGTTCGCCTCTTATATCCTCGGAGTCACCTAGTGCAG	24700 fluorescence intensity (a.u.)
CGCGCCTTCGCGAGATTCCCTCGGGTTTGGGCGGGACCGTCGGAGTCACCTAGTGCAG	3230 fluorescence intensity (a.u.)
TTTCGCGGGTAAACGAGCAAAGCGGGCATGGGTAGTGATTCGGAGTCACCTAGTGCAG	3550 fluorescence intensity (a.u.)
CTCCTTAACCTGCTCCATCAGCGCACCCCACACGCACTTCCGGAGTCACCTAGTGCAG	3490 fluorescence intensity (a.u.)
ACTACACTACACAGATTTCAGCCCGGTCAGGTGATTCGTTCGGAGTCACCTAGTGCAG	3220 fluorescence intensity (a.u.)
TATGCACTCAGAATTCGTAATGTTTAAAATTGCCTGCAAACGGAGTCACCTAGTGCAG	3150 fluorescence intensity (a.u.)
ATTCCGTGGATTATACCGTTAAAGATCAGCTGATGTATTCCGGAGTCACCTAGTGCAG	3350 fluorescence intensity (a.u.)
CGGCGGAGTGGCCGGCCGAGTGGGGATGCGGGGTGGCGCGCGGAGTCACCTAGTGCAG	3500 fluorescence intensity (a.u.)
CGGCCGTCCGCCCGAGATCTCCCTCTCCCACCGCGCGTTTCGGAGTCACCTAGTGCAG	3380 fluorescence intensity (a.u.)
AGAAGGGGAGAAAAGGAAACCGATCTCGGTCATGGCCACGCGGAGTCACCTAGTGCAG	50900 fluorescence intensity (a.u.)
GCATGCTCTCCGTGCCGTATGCGCTGTCGTAGGGCAGGTGCGGAGTCACCTAGTGCAG	3760 fluorescence intensity (a.u.)
CCCTGGCCCACCCGCGCCACCGTGGACGCCGCGCTTACCGCGGAGTCACCTAGTGCAG	4250 fluorescence intensity (a.u.)
CTACTTGATTAATCATAATAATATACTCAATCTTTGTTTTCGGAGTCACCTAGTGCAG	3800 fluorescence intensity (a.u.)
GGGCCCTTCGCCTCCACCTCCACCTCCACCTCCGCCGCGACGGAGTCACCTAGTGCAG	3690 fluorescence intensity (a.u.)
AATGGGGTTGGTCGTATCTATCGTAGGTGGATTATTTACCCGGAGTCACCTAGTGCAG	3470 fluorescence intensity (a.u.)
AATGGTGGGCCCCACGTGGACCCCACCTGTCATCCTCGCTCGGAGTCACCTAGTGCAG	7490 fluorescence intensity (a.u.)
TTGGATCACTCAATAAATTTAATGCATGTAACCGATAGGACGGAGTCACCTAGTGCAG	23600 fluorescence intensity (a.u.)
GATTCCGCAGAACAGTTCGAGTTGACCAATATTATATAGTCGGAGTCACCTAGTGCAG	20500 fluorescence intensity (a.u.)
TATAGATGGACTAAATCAACGTGCCACGTCAATGAAACTACGGAGTCACCTAGTGCAG	10500 fluorescence intensity (a.u.)
CTCCTTCATCTGATCTGTCACTGACATCGCGGGCCCACAACGGAGTCACCTAGTGCAG	7660 fluorescence intensity (a.u.)
TCCTCCTCCTCCTCAAACCCGTCGTCATCGTCGTCGTTGTCGGAGTCACCTAGTGCAG	5220 fluorescence intensity (a.u.)
